Drawing on PubChem BioAssay AID1347423 (Functional Genomics Laboratory (NCATS/FGL), 2020), this text covers z-score for 104 sequences.

The campaign covered roughly 52,000 sequences. About 210 (0.4%) were called active.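 The calls were made as follows: active = gene whose silencing raises cell survival under the drug, median off-target-corrected z-score across its silencing RNAs 2 or more; inactive = the rest.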 This is one part of the list.

The nature of this assay: Resistance to Poly (ADP-Ribose) Polymerase inhibitor: Gene Identification via Genome-wide siRNA Screen. To be noted: mouse BRCA2 R2336H ES cells, olaparib, CellTiter-Glo viability; active compounds read high. In outline:
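Genome-wide siRNA screen (3 siRNAs/gene, 20 nM) in mouse ES cells carrying hypomorphic BRCA2 R2336H; olaparib 500 nM added 48 h post-transfection, CellTiter-Glo viability 72 h later. Normalized to plate-median negative control; MAD z-scores, gene median, seed-adjusted.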
On the technique in general: ATP-based viability assays read luminescence as a measure of living cells.
GGUGAUCAACAGGAGUCUGTT against Rgs17: the z-score was inactive: -0.519. For GGAAAAGGAGGUGGUACUGTT against Agc1 the value was inactive: 0.55; for CCCAGGGAGAAUUGACUUGTT against Sertad1, inactive: -0.465. The same measure for GCCGUAGAUUUCCUUGAGUTT against Hbld2: inactive: -0.505; for CGAUGAGACCAACAUCUUUTT against Grca: inactive: 0.445. The same measure for GCGGGCUCACCAUAAUGCATT against Max: inactive: -1.03. As to GGAAAAAUCCAGCACAUCCTT against Vps29, the z-score was inactive: -0.524. For “GGCAACUAUGAAAAAUAGUTT against 1700065D16Rik” the value was inactive: 0.319. The same measure for GGGCUCUGGUGGAUGAAUUTT against Tmem4: inactive: 0.117; for GGAGACUCCAACUACUUCATT against Sycp1: inactive: 0.526.

Regarding “GGCUUUUCGUUGUAAAUCATT against 9930111J21Rik”, the z-score is inactive: 1.39. Turning to GGAGAGCAAGGAAGUACUATT against Speer4b, the z-score was inactive: 0.239.

In the case of “GGCAACUUUUAUCAAAAUGTT against 4930509O22”, the z-score is inactive: 0.0855.

As to GCCCUACCUUACCUGAUACTT against Rab17, the z-score was inactive: -0.955. For GCAAAGUCCAGUGAACAACTT against Gtse1 the value was inactive: -0.239; for “GGGACCUACUUUGUGGCUCTT against C230095G01Rik”, inactive: 0.02; for “GCUGUUGCUGGCUAUUCUGTT against 5730409G15Rik”, inactive: 0.298.

CCUGCUUUGUAUCUCCUCCTT against Csprs: the z-score is inactive: -0.521. For “GGUCAGACAGCAAUUCACATT against D830046C22Rik” the value was inactive: 0.445; for GGGUGAAUAAAACUUUGAATT against Haghl, inactive: -0.557; for CCAAUUGAGAAAAGUACAGTT against Lrp4, inactive: 0.032. For “GGUGCAGCAUACCUGAAGATT against 9130213B05Rik” the value was inactive: 0.871; for GGUAUGAGAUACCGGACACTT against Accn2, inactive: 0.151; for “CCUACUUCUCAUCGCUGAGTT against 2310022B05Rik”, inactive: 0.963. The same measure for CUGUAUGAAGAACUGGAGCTT against BC026645: inactive: 0.798; for GGUGGCCAUCAAAGUAAUCTT against Pim2: inactive: -0.0904. Regarding “GCAAAUGGAUGGUUCUUGGTT against 1200009O22Rik”, the z-score was inactive: -0.0293. For CCGAGCUGAGAUAUCCCAATT against Ube1y1 the value was inactive: 1.17; for GGGUUUGACUGUACAGUACTT against Adamts4, inactive: 0.0369. For GCUUCGUGGCUUUUUAUGATT against Dlgap3 the value was inactive: 0.631; for GGGUAAAGUACAAUAAACUTT against Atp1b2, inactive: 1.14; for GCACAUUGCUCCCAAGAAUTT against AI317223, inactive: -1.2. The same measure for GGUGUGCUGAGAAGUACUGTT against Acate2: inactive: 0.734; for GGAGUCUAAUAAAACAAGATT against Ankrd16: inactive: 0.744; for GCGAUUGAGAAAGAAUGCGTT against Mrpl45: inactive: -0.245.

For the sequence CGACAAUACUCUCUUCAAGTT against Fst, the z-score is inactive: 1.2. The same measure for CCACUGGUUCACCUAUAAUTT against Psma5: inactive: -3.11; for CAAAAAUAUCUACAGAGUCTT against Olfr494: inactive: -0.183; for GGACCCUUAGGAAAUGUGCTT against S100a10: inactive: -0.869.

On to GCCUUCGACAUAGAGUACCTT against Cri2, for which the z-score was inactive: 0.0276. For GGUUUAUUUAGCCUUGCUUTT against Dhx33 the value was inactive: -0.265; for GCGAACUACACUUACUACATT against Aqp12, inactive: -0.513; for CGAUAAUUUGGCUAAGUAUTT against Pip5k3, inactive: 0.0345.

As for GGAAAUAAUUCACUCACCATT against Eya1, the z-score is inactive: -2.13. For “GGUAUUUGAUUCCAAAUGCTT against 4930451A13Rik” the value was inactive: -0.442.

In the case of GGAGCCAUGACUUUUCACUTT against Sec22l1, the z-score is inactive: 0.164.

GGCAGAGUCUCUUUCGAAGTT against Foxh1: the z-score was inactive: 1.25. As to GGCGACGAAGUCACCUAUATT against Carhsp1, the z-score was inactive: -1.18. The same measure for CCACCCAUGAACUCACCAUTT against Pcbp1: inactive: -2.26.

For GGCAACACACUGUCAUUUCTT against Il9, the z-score was inactive: 0.751. Turning to GGUCACCAUCAUCAUCAAUTT against Lrrc16, the z-score was inactive: 1.15.

Take CCUGACAACUAACGAAGAUTT against Zdhhc18: the z-score was inactive: -0.316. For “GCAAUUACAGAUUAAGUCUTT against 1200003I07Rik” the value was inactive: 0.318. For GGUAAGUAUACAAAGAUACTT against Cdc27 the value was inactive: 1.86; for “GGCAGAACACCUUCUUAGUTT against 5830468K18Rik”, inactive: 1.04.

Take GGCCACAAUUAAUUUUUUGTT against Luzp2: the z-score was inactive: 0.217. For GGCUGUUCCAGAGAUUGUGTT against Mela the value was inactive: -2.87; for GGAAGCACUAUAGCCUCAGTT against Olfr39, inactive: 1.36. The same measure for “GGAAAAGAAACCAGUUUCUTT against C230012O17Rik”: inactive: 0.88; for CCUACGAGUAUUCAGAAAGTT against Snx13: inactive: 0.352; for CCUCUUUUUACUUGCCUAATT against Rassf1: inactive: -2.52.

With GCAACAAUGUGGUUCCUAUTT against Rab11a, the z-score was inactive: -0.547. The same measure for GGUUGGACAACAUAAUAAGTT against Mina: inactive: 0.92; for “GGAUUUUGAAUUAUGGGAUTT against 2310035C23Rik”: inactive: 0.0298. For CCGACACGUUCUCAAUGUCTT against Gss the value was inactive: -0.275; for GGAAAUAGAAGACCAGUUUTT against Sfrs3, inactive: 0.155; for “GCUGGUCUAAUCUGGAAACTT against 1200002G13Rik”, inactive: 0.0672. Take “GCAUUUCCGGGUUGUUACATT against 4930563C04Rik”: the z-score is inactive: -0.961.

As for CGCAGGUGUAACACUCAUUTT against Ifitm3, the z-score is inactive: -0.382. For “GGGUAUGCUUCAGUGUUCATT against 2610036N15Rik” the value was inactive: 0.438; for GCAGAGUGUGGUUAGUGGGTT against Cobl, inactive: -0.00865; for “GGAAAAACUCCUCUGAGGCTT against 5330431N19Rik”, inactive: 0.714. For GGAUCAAGUUAUUUCUUACTT against Olfr1156 the value was inactive: -0.677.

Turning to GGCGAAGGAGAAGAAUUAATT against Pem, the z-score is inactive: 1.17.

Take GGGAGUCUGGUGGAUUGAUTT against Rln1: the z-score was inactive: 0.141.

In the case of GGCUCAUGGAAAACUCUAUTT against Hspa9a, the z-score is inactive: -2.84. The same measure for GGAGUGGAUGACAUGAUCCTT against Myo7b: inactive: 0.203. For GGAUUUUAAUGUAGGAGAGTT against Pip5k2b the value was inactive: 0.563; for GGUGACCACUUUAAACUUCTT against Znhit1, inactive: 0.124; for GGACCAUUUGGUUAAUGCCTT against Fkbp3, inactive: 0.761. With GGUUUUGGCGGAUACUAAGTT against M6prbp1, the z-score is inactive: 1.34. Take “GCUAGAAGACAAUUACCUGTT against 4632419K20Rik”: the z-score is inactive: -0.492. For GGCUCUUCUGUCACCUUCATT against Prr3 the value was inactive: 0.366; for “GGAUAUCAUAUUUUCUCAGTT against 4921509E07Rik”, inactive: 1.1. For GGAGAAACAGAUUGAGCAGTT against Atp6v1e2 the value was inactive: 1.54; for GGCCUGAGCUGAUUGAGUATT against Actn4, inactive: -1.59; for GGGCCAUGCAAUCAUCAAGTT against Mesdc1, inactive: 0.738.

As for GCUCUAGGGUCGUAAUGUUTT against Ralb, the z-score is inactive: -1.8. With GCUAUGUCAUGGAAAGAAUTT against Pik3c2a, the z-score is inactive: -0.813.

Regarding “GGUCUACAGGCCUAUGUUGTT against A230051G13Rik”, the z-score is inactive: -2.26.

Take GCUGGUAGAAUACUAAGUATT against Metrn: the z-score was inactive: -0.956. The same measure for GCUUACCAAUUGAAAACUGTT against Terf1: inactive: 0.845.

Turning to GGCUGGGAAAAAAAAAGAATT against Ifi205, the z-score was inactive: -0.0763. The same measure for GGCAAGCUUCCAGAUCGAATT against Adam23: inactive: -0.961; for CCCAACUUCCGAAAGCUGUTT against Slc6a1: inactive: 1.58; for GGUCACUUCCUGUCUUUAATT against Tslpr: inactive: -0.846.

Regarding CGUGUAGGCAGAAUAGUUATT against Ankrd16, the z-score is inactive: -0.952. The same measure for GCCGCUUUCAUUAAGGCUGTT against Pdcd10: inactive: -0.292.

With GGAUCAUACAAUAUCCUUUTT against Olfr466, the z-score is inactive: -0.233. In the case of GGUUUAUAGGCCUUCUUCCTT against Flot2, the z-score is inactive: -0.238. For CGUUGUCAGUGUAAAUAUUTT against Osbpl6 the value was inactive: 1.09; for CGGUCUAUGAAAGUUAUUCTT against Mcmdc1, inactive: -0.818; for GGUGUUGAACCUCAUCCAGTT against Tom1, inactive: -1.82.

Regarding GCAUGUUUGGAUUGCUAUUTT against Olfr653, the z-score was inactive: -0.135.
